The text below walks through data of PubChem BioAssay AID1508600 (Functional Genomics Laboratory (NCATS/FGL), 2020).

In all, about 53,000 sequences went through this assay and about 3,700 (7%) were called active.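 How the source made its calls: active means gene knockdowns whose robust z-score for IL-1 alpha signal is at least 2 or at most -2, so actives lie on both sides; inactive means the rest.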 The list shows a part of the results.

The experiment is described as follows: Components of the Cytosolic LPS Sensing Pathway: Gene Identification via Genome-wide siRNA Screen.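 Further: robust z of the log signal after scaling to non-targeting control siRNA wells of the plate.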 Conditions: RAW264.7 macrophages, IL-1a HTRF, actives lie on both sides, screened at 100 nM (by protocol), cells primed 5 h with Pam3CSK4 first. In short, it runs like this:
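Three distinct siRNAs per gene were tested singly at 100 nM in RAW264.7 macrophages. Following Pam3CSK4 priming and 24 hour LipidA transfection, IL-1a secretion was read by HTRF.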
Take GGGACCUCCAUCGUAUUUGTT against Slc29a4: the z-score is inactive: 0.71.

For “GGAAGUAAGAAUCUGGUUUTT against A730036I17Rik”, the z-score is inactive: -0.0529. The result for GGUCCGAUAUCUGAGUCUCTT against Hic1 reads inactive: 0.471. Then GGUGUCAACAUUGCAUACUTT against Gatad2b, with inactive: 1.62. Then GCAGUGGUUAUCCAAGUAUTT against Chrm1, with inactive: -0.112; and GGGAGGAUCAAGGCCUUCUTT against Olfr62, with inactive: 0.104. Take UUUAAGGAUCUCGUGCGAATT against Olfr809: the z-score is inactive: -0.12. Regarding GGCUAAAUUAUUGCGCAAATT against C1qbp, the z-score was active: 2.34. The result for GGACAAAGACCAGUCAUUCTT against Nkapl reads inactive: -0.585; that for GGGAAAGGAAGAUGAUAUCTT against Wdr64, inactive: 0.127; that for GGCAUAUGACCAUCAUAAUTT against Porcn, inactive: -0.71.

Turning to CCCAUUGUAUUCAUCAGAGTT against Foxr2, the z-score is inactive: 0.35.

As to GGGAGAGGCCUUUUGAAUGTT against Zfp623, the z-score was inactive: -0.0575.

For the sequence GCCAGAUGCUUACUAAGUGTT against Nop14, the z-score is inactive: 1.11. Take GGUUCUUAGGAGUUAACUCTT against Klf16: the z-score was active: 2.71. Then AACUUUCUCAUUCUUACUGTT against Olfr961, with inactive: -1.22. For CCGGAAACGGAUCAUUUCATT against Galnt18, the z-score was inactive: 1.2. Then GGGAGUAAUGUUCUAAUCATT against Msh4, with inactive: 0.971; and GGAACCCAAACUGAAGUAUTT against Vps41, with inactive: 0.16. Then GGGAAUGUAAACAAAGUCATT against Iqgap1, with inactive: -1.11; and GGAAUGGGCAGUAUGAGUUTT against Ocrl, with inactive: -1.73; and GAGACUAAGCAGUGGAAGATT against Krtap21-1, with inactive: -0.124. Turning to CCUGCACAACUGGAAACCUTT against Nectin2, the z-score is active: -2.16. Then GCCACUCACCUGUAGUUCUTT against BC049715, with inactive: 0.0758; and GGACUCCAAGGACAAACUGTT against Wdr45, with inactive: -0.903. Turning to GCCAGUUCGAUAUAUCUUCTT against Gstz1, the z-score is inactive: -1.31. The result for GGAACUUCAGUGUCGUCUCTT against Olfr285 reads inactive: 0.364. As for CCAAAAUGUAUACCUACUUTT against Car4, the z-score is inactive: -0.564. Take GGCAGAUCUUGCUGACAUCTT against Nat8f2: the z-score was inactive: -1.59. The result for CCUGUUAAUGACACCCACGTT against Slc37a2 reads inactive: -0.886; that for GGUCCGGAACAAAUUAGAUTT against Eif2ak1, inactive: 0.76. Consider GGUGUCAGCUUACCAUUCATT against Triap1, for which the z-score was inactive: -0.329.

GCUUUGUUGUACGACAACATT against Agr2: the z-score is inactive: 1.43. Then CGGUGUCACCCAUGUUAUCTT against Actr3b, with inactive: -0.158; and GGGUGUGUUUUUAUGUGUUTT against Lcp2, with active: 2.57. The result for GCCCAUCUACUCACGGUACTT against Mon1b reads inactive: -0.21; that for GGAAAUAGAAGACCAGUUUTT against Srsf3, inactive: -1.43.

Take GGCAGAAGAGUGGUACAAGTT against Dok4: the z-score was inactive: 1.02. The result for GGUUCAGAAGUUUGUGAUGTT against Vmn1r17 reads inactive: 1.67.

For the sequence GCGAGCAAGUGAAAACGCATT against Sumf1, the z-score was inactive: -0.717. The result for GCUGGACCUUCGAAGGUUUTT against Pltp reads inactive: 0.509; that for GGCCAUUGAGUGCUCCUACTT against Dhcr7, inactive: -0.113. On to GGCUGCUGGUCAGUUAUGATT against Glrb, for which the z-score is inactive: -0.603.

In the case of GGAAUGUGAGCUUAUCAUATT against Tlr1, the z-score is inactive: -0.965. Then GGAACUAAAUAUCCCUAUGTT against Polr3gl, with inactive: -1.26; and GGAAUAACACCUCUGUCCCTT against Hspa12a, with inactive: 0.145; and GGUGUUCAAUGCUCACUAUTT against Fezf2, with inactive: 0.594. Regarding GCUUCAGACGUAAUUUACUTT against Morc1, the z-score was inactive: 0.751.

In the case of GGCAUCUGCUUUUCAGAAATT against Ube2h, the z-score is inactive: 0.566. The result for GGCAUUUUACCAGCGAAGCTT against Klhl5 reads inactive: 0.107; that for GGAAGCAACCCAAGGAUAATT against Syt8, inactive: 0.532; that for GGGUUUCCAAGAAGGAAGCTT against Utp25, inactive: 0.852. Then GGGACAACACUCUUUUACUTT against Nab2, with inactive: 0.696; and GCUAAGCUACAUUUCCAAATT against Pycard, with inactive: 1.19; and GGAAGAGUGUAGGGCUUACTT against Htr1a, with inactive: -0.103. Then GCCUGUACUUCAGAAACUCTT against Akirin1, with inactive: -0.337; and GGAAUCCUUUCCUAAAUUGTT against Lin9, with inactive: 0.745. On to GGCAUCAAAGACAAUACAATT against Vmn1r15, for which the z-score was active: 3.19. The result for GCUAUAUCUAAAGCUAUUCTT against Sgpp1 reads inactive: -0.782. Then GGAAGUCUCUCGUAUUAUATT against Washc5, with inactive: -0.993; and CCUCAUUUCAACCAUUCACTT against Lyzl6, with active: -2.36; and GGGCCUGAAAAGACCAUCATT against Olfr124, with inactive: -0.424. The result for GGGCUAUGGCUCCUUUGUGTT against Rhpn1 reads inactive: -1.61. Turning to GGUCUUUCAUUGAAGCUGATT against Il1b, the z-score was inactive: -0.00807. Take CGAUCAAAAAAAUCGUGUGTT against Cfap97: the z-score was inactive: 0.587. The result for GCAAUCCUAUGAAGUUAAATT against Zfp169 reads inactive: 0.295; that for GGAGAUGGGUUUAAGCCCUTT against Scube3, inactive: -0.0385; that for GCCUGGGUAUGAAGAAAUUTT against Pla2g2f, inactive: -0.35.

As to GGUAUUUCGAAACCUCCGUTT against H2-Q10, the z-score was active: 2.01. The result for GGAGAUCGACCUGUCUAUGTT against Cep164 reads inactive: 0.988. Then GCGAUCACAGACAUCAUUGTT against Rabgef1, with inactive: -0.423; and GCUGGGUUGCUGAUUUUUGTT against Arl5a, with inactive: -0.881.

As to GGCUCAUCAUUGAGAACAUTT against Zmym1, the z-score was inactive: -1.4.

With GGAUGAAGAUACAGAGGUATT against Spata32, the z-score was inactive: -0.931. Regarding “GGAUGUAGGCAGUAGUAGCTT against 4931428F04Rik”, the z-score is inactive: 0.574. Turning to GCGAAGUUACUACAGACGUTT against Slc39a1, the z-score was inactive: -0.124. Then GGAAUCGUACUUCCACUAGTT against AI854703, with inactive: -0.277. Then GGGCAUGAAGAGCUACAUCTT against Snx18, with inactive: -0.597. Then CGUGUGGACCAAUGUGGUATT against Fam149a, with inactive: 0.793; and CCAGAUGGGAUACCUCUACTT against Tmed6, with inactive: 0.303.

Turning to CGGAUGCAAUCUGACCAGATT against Mettl7a2, the z-score is inactive: 0.000984. The result for “CCAAUUCAAUUAGACUAGATT against 9430015G10Rik” reads inactive: 0.89; that for “GGUUCAGCUCAUAUAUAAUTT against D630029K05Rik”, inactive: 0.448.

For the sequence GGUAGACUCUAGCUUCCUCTT against Gpr182, the z-score was inactive: 0.945. For the sequence GGGUCUUCUGGAGAUUCAGTT against Dgcr6, the z-score is inactive: 0.275. As to GGGAAGUGGAUCGUGUUCUTT against Syt8, the z-score is inactive: 0.157.

Take GGAGAAUCUGAUAUUGAUCTT against Cdkl2: the z-score was inactive: 0.0472. The result for GCAUGUGUACCAUUUACCUTT against Prdx1 reads inactive: 1.87; that for GGCAUUUAUGUCAAAGGAUTT against Fhl5, inactive: 0.0626. In the case of GCUCACUUCAGGUUUACCATT against Pdcd1, the z-score is inactive: -1.33.

In the case of GCUAUAGGUUAGAUUCAAATT against Gm5600, the z-score was inactive: 0.999. The result for GCAGCUAACUCCAAGUCAGTT against Tfam reads inactive: -1.42. Then GCCUGAUUUUUUGUCUCUATT against Slc39a7, with inactive: -0.344. Then GGAGAAGAAAGAAGUUAAATT against Map1b, with inactive: 1.19; and GGAAAAGGUGGAAAAGUGATT against Ddx18, with inactive: -0.511. As to GGUUACAAAAGAACCAGAUTT against Pik3c2g, the z-score is inactive: 1.66.

Take GCCGGUUUAUAGAAGAAGATT against D6Wsu163e: the z-score was inactive: 1.03. The result for GGCACACAGUAACUUGAACTT against Vmn1r51 reads inactive: 0.458; that for GGAAUCUAGAAGAAUCAUUTT against Gnao1, inactive: -0.42. As for CCUGAGUGUGGAGUGUUUCTT against Olfr444, the z-score was inactive: -0.576. The result for “GCCACAAGGUUCGGUAUUCTT against 1700028K03Rik” reads inactive: -0.281. Consider GGAAAUUCGUGCAUGAAGATT against Sgsm2, for which the z-score was inactive: -1.31. The result for GGUCUAUCCUACCUCAAAGTT against Prl8a8 reads inactive: 1.93; that for GCUAAGUGCUCGAAUCCGATT against Cnppd1, inactive: -0.326.

Turning to GGGUUUAUGGGCAUGUCCCTT against Adipor2, the z-score was inactive: -0.964.

GGAAAAACUGGUAUCUUCCTT against Ermp1: the z-score is inactive: -1.11.
